The source of these data is PubChem BioAssay AID527 (NMMLSC, 2006).

The list shows a part of the results.

This test is described as follows: blockers of AIP-driven agr signalling in S. aureus – RNAIII-GFP reporter, flow cytometry, primary screen (AID 527).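 Also: 0% = AIP-stimulated control and 100% = unstimulated bacteria without AIP.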 The settings on record: S. aureus RN6390 RNAIII-GFP reporter, AIP-induced, flow cytometry 3 h; measured here: inhibition of GFP MFI; at 2 µM; stronger effect = higher value.
In the case of `Cc1ccc(C)c(NP(C)(=O)Oc2ccccc2)c1` (centres undefined), the inhibition was found to be 6.4%.
As for `CCOP1(=S)c2c(C)nn(CCC#N)c2N=C(c2ccccc2F)N1C` (centres undefined), the inhibition was -2.9%.
To `Cc1nn(-c2ccccc2)c2c1P(=O)(N1CCOCC1)N(C)C(c1ccccc1)=N2` (centres undefined) belongs 14.4%.
To `Clc1n[nH]nc1-c1nn[nH][15n]1` belongs 5.8%; to `O=C(COc1ccccc1)OC1CN2CCC1CC2` (centres undefined), -19.2%.
As for `COP1(=S)c2c(C)nn(CCC#N)c2N=C(c2ccc(F)cc2)N1C` (centres undefined), the figure is -12.3%; as for `CP(=S)(Nn1cnnc1)Oc1ccccc1` (centres undefined), -4.7%.
Turning to `CP(=O)(Nc1ccccn1)Oc1ccccc1` (centres undefined), the inhibition stood at 4.8%.
Take `Cc1nc2ccc3ccccc3c2o1.O=[N+]([O-])c1cc([N+](=O)[O-])c(O)c([N+](=O)[O-])c1`: the inhibition was determined as 4.4%.
To `CCc1nc2c(n1)c1c(non1O)c1c2no[n+]1[O-]` belongs -6.3%.
With `O=P(Nc1nccs1)(c1ccccc1)c1ccccc1`, the inhibition is -6.3%.
For `Cc1ccccc1NP(C)(=O)Nc1ccccc1C`, the inhibition is -5%.
Consider `CP(=O)(Nc1ccc2c(c1)OCCO2)Oc1ccccc1` (centres undefined), for which the inhibition was -7.3%.
As for `CN(C)CCOC(=O)C(O)(c1ccccc1)C1CCCCC1` (centres undefined), the figure is 1%.
